The target of assay [1] is T1, YFPc–TGB1 (BSMV TGB1 fused with the C‐terminal fragment of YFP) (barley stripe mosaic virus) (UniProt P04867).
T1 sequence: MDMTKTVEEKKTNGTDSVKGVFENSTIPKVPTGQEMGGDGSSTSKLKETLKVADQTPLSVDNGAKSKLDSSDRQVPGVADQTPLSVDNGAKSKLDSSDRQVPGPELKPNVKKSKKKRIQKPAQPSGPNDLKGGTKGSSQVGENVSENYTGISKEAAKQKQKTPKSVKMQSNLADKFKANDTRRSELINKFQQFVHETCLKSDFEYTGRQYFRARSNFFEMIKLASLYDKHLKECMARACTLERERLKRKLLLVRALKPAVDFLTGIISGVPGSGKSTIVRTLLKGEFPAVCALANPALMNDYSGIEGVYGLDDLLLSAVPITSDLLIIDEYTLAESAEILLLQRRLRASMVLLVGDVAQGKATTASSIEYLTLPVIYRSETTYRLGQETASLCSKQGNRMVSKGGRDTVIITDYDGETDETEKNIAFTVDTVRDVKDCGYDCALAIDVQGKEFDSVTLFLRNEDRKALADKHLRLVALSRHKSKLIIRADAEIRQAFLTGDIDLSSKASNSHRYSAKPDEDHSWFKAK
As to the kind of experiment: split reporter; BiFC with YFPn and YFPc fusions co-infiltrated into N. benthamiana leaves, confocal microscopy at 48 hpi; TGB1 alone or expressed from the BSMV infectious cDNA.

Assay [2] concerns the target T2, cLuc–TGB1 (BSMV TGB1) (barley stripe mosaic virus) (UniProt P04867).
T2 sequence: T1 sequence
As to the kind of experiment: split reporter; firefly luciferase complementation imaging (LCI, split-LUC); nLuc and cLuc fusions co-infiltrated into N. benthamiana leaves, 48 hpi, 1 mmol/L luciferin.

In assay [3] the target is T3, GST‐tagged TGB1 (BSMV TGB1) (barley stripe mosaic virus) (UniProt P04867).
T3 sequence: T1 sequence
As to the kind of experiment: pull-down; 6 µg GST-tagged TGB1 with 5 µg ARI8 or His-tagged GFP on GST agarose beads, 3 h, 4°C; 50 mM Tris-HCl pH 7.5-8.0, 200 mM NaCl, 5 mM DTT, 0.2% glycerol, 0.6% Triton X-100; washes with 250 mM NaCl; blots with anti-GST or anti-His; both purified.

Assay [4] deals with T4, BSMV‐encoded TGB1 of the HvARI8 Co‐IP assay (tag not stated) (barley stripe mosaic virus) (UniProt P04867).
T4 sequence: T1 sequence
The assay is described as follows: co-IP; constructs co-infiltrated into N. benthamiana leaves, 48 hpi; lysis in 25 mM Tris-HCl pH 7.5, 150 mM NaCl, 1 mM EDTA, 10% glycerol; anti-Flag or anti-GFP agarose beads, 4°C, 3–4 h; washes with 0.1% NP-40; blots with anti-FLAG or anti-GFP.

In assay [5] the target is T5, YFPc–TGB1 expressed from the BSMV infectious cDNA (BSMV_(YFPc–TGB1)) (barley stripe mosaic virus) (UniProt P04867).
T5 sequence: T1 sequence
As to the kind of experiment: split reporter; BiFC with YFPn and YFPc fusions co-infiltrated into N. benthamiana leaves, confocal microscopy at 48 hpi; TGB1 alone or expressed from the BSMV infectious cDNA.

Assay [6] addresses T6, TGB1–nLuc (BSMV TGB1) (barley stripe mosaic virus) (UniProt P04867).
T6 sequence: T1 sequence
The assay is described as follows: split reporter; firefly luciferase complementation imaging (LCI, split-LUC); nLuc and cLuc fusions co-infiltrated into N. benthamiana leaves, 48 hpi, 1 mmol/L luciferin.

Assay [7] has as its target ARI8–3×Flag (N. benthamiana ARI8) (Nicotiana benthamiana). As to the kind of experiment: co-IP; constructs co-infiltrated into N. benthamiana leaves, 48 hpi; lysis in 25 mM Tris-HCl pH 7.5, 150 mM NaCl, 1 mM EDTA, 10% glycerol; anti-Flag or anti-GFP agarose beads, 4°C, 3–4 h; washes with 0.1% NP-40; blots with anti-FLAG or anti-GFP.

These are yes or no findings as the source states them, for the method shown. Binding can be weak; no strength is given. For part of these data: Sequences can lack the tags named with a protein. For part of these data: Binding seen in cells or lysates may run through a third protein.

“ARI8^C311S of the BiFC assay (Nicotiana benthamiana) (enzyme)”: in assay [1], the binding result is listed as “binds”.

Regarding “ARI8–nLuc (N. benthamiana ARI8) (Nicotiana benthamiana) (enzyme)”, in assay [2], the binding entry is given as “binds”.

With “His‐tagged ARI8 (N. benthamiana ARI8) (Nicotiana benthamiana) (enzyme)”, the binding entry in assay [3] is “binds”.

Take “HvARI8 (barley ARI8) of the Co‐IP assay (Hordeum vulgare) (enzyme)”: the binding entry in assay [4] is on record as “binds”.

On to “YFPn–ARI8 (ARI8 fused with the N‐terminal fragment of yellow fluorescent protein) (Nicotiana benthamiana) (enzyme)”, for which the binding result in assay [1] and in assay [5] was “binds” each time.

“YFPn–HvARI8 (barley ARI8 in the BiFC vector) (Hordeum vulgare) (enzyme)”: in assay [1], the binding result was “binds”.

Take “cLuc–ARI8^C311S (Nicotiana benthamiana) (enzyme)”: in assay [6], the binding entry was “binds”.

B1: GFP–TGB1 (GFP‐tagged BSMV TGB1) (protein, UniProt P04867 1-528)
chain: T1 sequence
B1: the binding result in assay [7] is reported as “binds”.

The record behind these values is publication PMC12667515.
